Results deposited as PubChem BioAssay AID1259308 (NCATS, 2017)
The deposit covers about 59,000 reagents; below is a part drawn at random. In the full data, about 1,510 (2.6%) were called active. 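Calls use total luciferase alone and ignore viability, so some active siRNAs may act by altering cell number.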 Reagents against one gene are numbered here. Further read-outs or replicates are left out here. No sequences are given here.

Test: 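Candidate targets for better recombinant protein yield in mammalian cells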 (primary screen)
Cell system: human HEK293 embryonic kidney cells stably expressing firefly luciferase (HEK-CMV-Luc2-Hygro)
Knock-down reagent: single siRNA against human genes, 0.8 pmol siRNA per well
Time to read-out: 72 h
Detection: 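Luciferase light (ONE-Glo) measured on one replicate plate set and viability (CellTiter-Glo) on the other, scaled to a negative control siRNA, with robust z-scores and luciferase per cell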
Scale: total luciferase, z-score and total luciferase, % of control: higher = more reporter protein produced
Active means: 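Active when the median/MAD z-score for overall luciferase is greater than 3; a gene was taken forward for validation with new siRNAs if at least two of its three siRNAs passed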
Calls: active = raised luciferase; inactive = no rise

With knock-down of HCCAT5 (hepatocellular carcinoma associated transcript 5) #1, the screen gave total luciferase, z-score -0.99; total luciferase, % of control 62.2; inactive.
Against HCCAT5 (hepatocellular carcinoma associated transcript 5) #2, the entry reads total luciferase, z-score -0.406; total luciferase, % of control 73.8; inactive.
HCCAT5 (hepatocellular carcinoma associated transcript 5) #3 gave total luciferase, z-score 0.315; total luciferase, % of control 88.1; inactive.
TRABD (TraB domain containing) #1 scored total luciferase, z-score 0.636; total luciferase, % of control 94.5; inactive.
TRABD (TraB domain containing) #2 gave total luciferase, z-score 0.649; total luciferase, % of control 94.8; inactive.
Knock-down of TRABD (TraB domain containing) #3 resulted in: total luciferase, z-score 2.22; total luciferase, % of control 126; inactive.
After knock-down of CTSL3P (cathepsin L family member 3, pseudogene) #1, the screen gave total luciferase, z-score -0.892; total luciferase, % of control 64.1; inactive.
Against CTSL3P (cathepsin L family member 3, pseudogene) #2 the deposit lists total luciferase, z-score -0.305; total luciferase, % of control 75.8; inactive.
Knock-down of CTSL3P (cathepsin L family member 3, pseudogene) #3 resulted in: total luciferase, z-score 1.79; total luciferase, % of control 118; inactive.
After knock-down of HDDC2 (HD domain containing 2) #1, the screen gave total luciferase, z-score -0.27; total luciferase, % of control 76.5; inactive.
For HDDC2 (HD domain containing 2) #2, the values are total luciferase, z-score 0.185; total luciferase, % of control 85.6; inactive.
Against HDDC2 (HD domain containing 2) #3 the deposit lists total luciferase, z-score 0.924; total luciferase, % of control 100; inactive.
MMS19 (MMS19 cytosolic iron-sulfur assembly component) #1 scored total luciferase, z-score 0.194; total luciferase, % of control 85.7; inactive.
Silencing of MMS19 (MMS19 cytosolic iron-sulfur assembly component) #2 resulted in: total luciferase, z-score 0.477; total luciferase, % of control 91.4; inactive.
MMS19 (MMS19 cytosolic iron-sulfur assembly component) #3 showed total luciferase, z-score -0.0542; total luciferase, % of control 80.8; inactive.
After knock-down of TRAK2 (trafficking kinesin protein 2) #1, the record shows total luciferase, z-score 0.452; total luciferase, % of control 90.9; inactive.
After knock-down of TRAK2 (trafficking kinesin protein 2) #2, the record shows total luciferase, z-score -0.566; total luciferase, % of control 70.6; inactive.
TRAK2 (trafficking kinesin protein 2) #3 gave total luciferase, z-score 0.895; total luciferase, % of control 99.7; inactive.
For TNFSF4 (TNF superfamily member 4) #1, the entry reads total luciferase, z-score 0.344; total luciferase, % of control 88.7; inactive.
Silencing of TNFSF4 (TNF superfamily member 4) #2 gave: total luciferase, z-score -0.342; total luciferase, % of control 75.1; inactive.
TNFSF4 (TNF superfamily member 4) #3 gave total luciferase, z-score -0.169; total luciferase, % of control 78.5; inactive.
Against LRRC25 (leucine rich repeat containing 25) #1, the entry reads total luciferase, z-score -0.868; total luciferase, % of control 64.6; inactive.
Knock-down of LRRC25 (leucine rich repeat containing 25) #2 resulted in: total luciferase, z-score 1.11; total luciferase, % of control 104; inactive.
Silencing of LRRC25 (leucine rich repeat containing 25) #3 came out at: total luciferase, z-score -0.89; total luciferase, % of control 64.2; inactive.
ASAH2B (N-acylsphingosine amidohydrolase 2B) #1 showed total luciferase, z-score 0.248; total luciferase, % of control 86.8; inactive.
For ASAH2B (N-acylsphingosine amidohydrolase 2B) #2, the entry reads total luciferase, z-score -0.586; total luciferase, % of control 70.2; inactive.
Depletion of ASAH2B (N-acylsphingosine amidohydrolase 2B) #3 resulted in: total luciferase, z-score 1.77; total luciferase, % of control 117; inactive.
ROPN1 (rhophilin associated tail protein 1) #1 showed total luciferase, z-score -0.602; total luciferase, % of control 69.9; inactive.
Silencing of ROPN1 (rhophilin associated tail protein 1) #2 gave: total luciferase, z-score 2.12; total luciferase, % of control 124; inactive.
With knock-down of ROPN1 (rhophilin associated tail protein 1) #3, the record shows total luciferase, z-score -0.862; total luciferase, % of control 64.7; inactive.
Knock-down of RNF4 (ring finger protein 4) #1 came out at: total luciferase, z-score 3.44; total luciferase, % of control 150; active.
RNF4 (ring finger protein 4) #2 showed total luciferase, z-score -0.148; total luciferase, % of control 78.9; inactive.
Knock-down of RNF4 (ring finger protein 4) #3 came out at: total luciferase, z-score 0.876; total luciferase, % of control 99.3; inactive.
Silencing of XPA (XPA, DNA damage recognition and repair factor) #1 gave: total luciferase, z-score 1.9; total luciferase, % of control 120; inactive.
XPA (XPA, DNA damage recognition and repair factor) #2 scored total luciferase, z-score -2.09; total luciferase, % of control 40.3; inactive.
XPA (XPA, DNA damage recognition and repair factor) #3 showed total luciferase, z-score -0.206; total luciferase, % of control 77.8; inactive.
For TLX3 (T cell leukemia homeobox 3) #1 the deposit lists total luciferase, z-score -0.266; total luciferase, % of control 76.6; inactive.
Depletion of TLX3 (T cell leukemia homeobox 3) #2 gave: total luciferase, z-score 2.1; total luciferase, % of control 124; inactive.
For TLX3 (T cell leukemia homeobox 3) #3, the entry reads total luciferase, z-score 1.42; total luciferase, % of control 110; inactive.
DTWD1 (DTW motif tRNA-uridine aminocarboxypropyltransferase 1) #1 gave total luciferase, z-score 1.14; total luciferase, % of control 105; inactive.
For DTWD1 (DTW motif tRNA-uridine aminocarboxypropyltransferase 1) #2, the values are total luciferase, z-score -0.261; total luciferase, % of control 76.7; inactive.
After knock-down of DTWD1 (DTW motif tRNA-uridine aminocarboxypropyltransferase 1) #3, the screen gave total luciferase, z-score -0.977; total luciferase, % of control 62.5; inactive.
